From article PMC12713080
Results are given in words; binding and its absence hold for the method and conditions named. For some of these results: Binding seen in cells or lysates may run through a third protein. Some entries that bind do so weakly or less than the wild type. For some of these results: Where a sequence is shown, tags or fusion partners need not be part of it. Each block holds one binder with its values, some of them ahead of it.

Assays:
[1] = target: DLAT (human (endogenous in MDA-MB-231 and BT-549)) (UniProt P10515); assay: SDS-PAGE without dithiothreitol and immunoblot; cells treated with elesclomol alone, with IKKβ knock-down or with QNZ; lysed in EBC buffer; dithiothreitol-free loading buffer, 70 °C 10 min; 6% SDS-PAGE
HA‐TAK1 (human) = target: T1, HA‐TAK1 (human) (UniProt O43318); assay: co-IP; TAK1 wild type or copper binding-deficient TAK1, with copper (Figures S5J-L; legends not shown)
T1 sequence: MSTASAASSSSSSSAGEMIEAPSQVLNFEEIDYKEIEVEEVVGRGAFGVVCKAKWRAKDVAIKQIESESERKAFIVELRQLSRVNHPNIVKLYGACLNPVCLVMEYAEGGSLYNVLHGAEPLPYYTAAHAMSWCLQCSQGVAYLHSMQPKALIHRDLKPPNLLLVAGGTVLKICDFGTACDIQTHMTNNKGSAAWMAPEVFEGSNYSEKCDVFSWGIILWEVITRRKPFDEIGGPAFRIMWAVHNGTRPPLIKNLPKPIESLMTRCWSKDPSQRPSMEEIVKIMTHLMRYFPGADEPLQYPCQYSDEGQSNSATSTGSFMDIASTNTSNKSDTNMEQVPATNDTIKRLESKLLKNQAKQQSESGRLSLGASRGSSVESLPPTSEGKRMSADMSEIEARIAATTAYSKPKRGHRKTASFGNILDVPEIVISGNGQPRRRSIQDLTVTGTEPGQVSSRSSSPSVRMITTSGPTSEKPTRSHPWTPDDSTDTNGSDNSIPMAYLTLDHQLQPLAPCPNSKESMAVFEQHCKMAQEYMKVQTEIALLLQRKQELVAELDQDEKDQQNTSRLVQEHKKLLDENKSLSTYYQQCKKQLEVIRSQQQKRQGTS

HA‐TAK1‐2A (human) = target: T2, HA‐TAK1‐2A (human) (UniProt O43318); assay: as above
T2 sequence: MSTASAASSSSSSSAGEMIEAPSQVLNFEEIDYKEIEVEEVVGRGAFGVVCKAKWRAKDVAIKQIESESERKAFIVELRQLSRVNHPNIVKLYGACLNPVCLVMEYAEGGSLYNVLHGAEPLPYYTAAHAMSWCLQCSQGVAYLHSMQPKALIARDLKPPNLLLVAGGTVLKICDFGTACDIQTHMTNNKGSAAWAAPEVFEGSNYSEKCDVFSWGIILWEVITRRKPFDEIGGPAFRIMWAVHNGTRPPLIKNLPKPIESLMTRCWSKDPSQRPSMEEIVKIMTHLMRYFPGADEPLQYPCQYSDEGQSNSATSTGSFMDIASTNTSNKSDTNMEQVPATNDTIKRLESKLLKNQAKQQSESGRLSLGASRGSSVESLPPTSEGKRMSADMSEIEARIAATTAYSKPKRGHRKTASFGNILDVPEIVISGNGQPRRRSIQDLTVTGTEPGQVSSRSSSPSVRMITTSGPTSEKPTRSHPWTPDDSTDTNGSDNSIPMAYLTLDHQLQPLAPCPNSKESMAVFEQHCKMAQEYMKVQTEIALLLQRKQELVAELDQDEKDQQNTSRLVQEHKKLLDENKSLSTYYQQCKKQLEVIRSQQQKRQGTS

[2] = target: T3, transforming growth factor β‐activated kinase 1 (TAK1), endogenous (human (endogenous in MDA-MB-231)) (UniProt O43318); assay: co-IP; endogenous proteins; MDA-MB-231 cells in serum-free medium with CuSO4 (50 µM) or/and TTM (50 µM) for 14 h; lysate with anti-TAK1 antibody and protein A/G agarose 12 h at 4 °C; washed 4 times with NETN buffer (20 mM Tris-HCl pH 8.0, 150 mM NaCl, 0.5% NP-40, 1 mM EDTA)
T3 sequence: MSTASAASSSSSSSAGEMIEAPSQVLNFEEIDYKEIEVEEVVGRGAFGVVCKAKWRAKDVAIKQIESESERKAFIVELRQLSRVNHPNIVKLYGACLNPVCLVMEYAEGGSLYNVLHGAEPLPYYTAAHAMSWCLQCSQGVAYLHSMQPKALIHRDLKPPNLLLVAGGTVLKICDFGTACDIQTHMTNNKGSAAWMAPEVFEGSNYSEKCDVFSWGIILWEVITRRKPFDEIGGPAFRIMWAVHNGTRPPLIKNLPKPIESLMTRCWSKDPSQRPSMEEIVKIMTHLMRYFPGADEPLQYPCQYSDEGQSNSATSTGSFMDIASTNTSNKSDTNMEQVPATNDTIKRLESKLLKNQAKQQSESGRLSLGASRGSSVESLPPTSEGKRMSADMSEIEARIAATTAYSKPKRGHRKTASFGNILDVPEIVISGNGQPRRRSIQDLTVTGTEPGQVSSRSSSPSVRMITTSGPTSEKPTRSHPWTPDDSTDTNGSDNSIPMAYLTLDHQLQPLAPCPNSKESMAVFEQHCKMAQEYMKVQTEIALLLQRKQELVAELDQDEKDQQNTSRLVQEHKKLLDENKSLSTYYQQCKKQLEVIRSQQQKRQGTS

HA‐TAK1 (human), O43318 [3] = target: T4, HA‐TAK1 (human), O43318; assay: co-IP; HEK293T cells cotransfected with the indicated constructs; IP with anti-HA beads, immunoblot (Figure 3N; Figures S5Q,R); conditions: remark: other sources report otherwise
T4 chain: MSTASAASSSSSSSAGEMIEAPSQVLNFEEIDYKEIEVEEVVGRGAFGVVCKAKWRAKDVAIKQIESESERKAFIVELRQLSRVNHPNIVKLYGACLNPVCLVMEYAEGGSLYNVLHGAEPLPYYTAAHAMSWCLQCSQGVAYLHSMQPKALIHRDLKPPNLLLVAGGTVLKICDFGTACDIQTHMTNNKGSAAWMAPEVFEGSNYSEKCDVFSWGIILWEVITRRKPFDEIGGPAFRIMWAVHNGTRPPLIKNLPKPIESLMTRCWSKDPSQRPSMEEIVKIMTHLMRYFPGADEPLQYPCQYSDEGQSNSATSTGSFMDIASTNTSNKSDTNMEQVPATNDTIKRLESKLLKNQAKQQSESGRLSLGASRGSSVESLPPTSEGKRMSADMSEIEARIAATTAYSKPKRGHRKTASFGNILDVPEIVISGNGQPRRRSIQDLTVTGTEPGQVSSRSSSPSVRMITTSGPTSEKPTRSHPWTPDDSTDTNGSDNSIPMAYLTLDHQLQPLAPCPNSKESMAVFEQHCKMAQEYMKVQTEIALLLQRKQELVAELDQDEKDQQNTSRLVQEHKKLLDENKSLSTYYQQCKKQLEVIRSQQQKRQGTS

HA‐TAK1 (human), O43318 [4] = target: T4, HA‐TAK1 (human), O43318; assay: co-IP; in cells, with copper (Figure S5P; legend not shown); conditions: remark: other sources report otherwise
[5] = target: T5, Human TAK1 Protein (HY‐P703591) (human), O43318; assay: co-IP; purified Flag-TRAF2 and bought TAK1 incubated with anti-TAK1 antibody and protein A/G agarose with or without CuSO4 (50 µM) for 10 h at 4 °C; washed 4 times with NETN buffer; both purified; conditions: remark: other sources report otherwise
T5 chain: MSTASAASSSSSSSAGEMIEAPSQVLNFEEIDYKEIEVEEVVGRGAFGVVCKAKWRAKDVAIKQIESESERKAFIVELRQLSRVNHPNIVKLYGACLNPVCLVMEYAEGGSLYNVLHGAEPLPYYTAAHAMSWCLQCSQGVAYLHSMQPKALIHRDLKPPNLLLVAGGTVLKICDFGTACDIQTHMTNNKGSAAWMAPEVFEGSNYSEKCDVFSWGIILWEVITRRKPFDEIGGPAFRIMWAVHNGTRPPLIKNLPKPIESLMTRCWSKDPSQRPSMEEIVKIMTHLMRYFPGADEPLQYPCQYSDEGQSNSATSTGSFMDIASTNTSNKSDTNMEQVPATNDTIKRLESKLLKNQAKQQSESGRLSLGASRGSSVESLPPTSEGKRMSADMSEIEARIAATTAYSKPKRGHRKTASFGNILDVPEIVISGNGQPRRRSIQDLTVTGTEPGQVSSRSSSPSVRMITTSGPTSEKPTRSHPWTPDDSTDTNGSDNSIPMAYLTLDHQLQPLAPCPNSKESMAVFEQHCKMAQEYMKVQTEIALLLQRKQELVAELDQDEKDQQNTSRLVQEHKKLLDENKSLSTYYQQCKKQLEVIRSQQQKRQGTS

binding [1]: binds
B1: DLAT (protein, UniProt P10515 87-647)
chain: SLPPHQKVPLPSLSPTMQAGTIARWEKKEGDKINEGDLIAEVETDKATVGFESLEECYMAKILVAEGTRDVPIGAIICITVGKPEDIEAFKNYTLDSSAAPTPQAAPAPTPAATASPPTPSAQAPGSSYPPHMQVLLPALSPTMTMGTVQRWEKKVGEKLSEGDLLAEIETDKATIGFEVQEEGYLAKILVPEGTRDVPLGTPLCIIVEKEADISAFADYRPTEVTDLKPQVPPPTPPPVAAVPPTPQPLAPTPSAPCPATPAGPKGRVFVSPLAKKLAVEKGIDLTQVKGTGPDGRITKKDIDSFVPSKVAPAPAAVVPPTGPGMAPVPTGVFTDIPISNIRRVIAQRLMQSKQTIPHYYLSIDVNMGEVLLVRKELNKILEGRSKISVNDFIIKASALACLKVPEANSSWMDTVIRQNHVVDVSVAVSTPAGLITPIVFNAHIKGVETIANDVVSLATKAREGKLQPHEFQGGTFTISNLGMFGIKNFSAIINPPQACILAIGASEDKLVPADNEKGFDVASMMSVTLSCDHRVVDGAVGAQWLAEFRKYLEKPITMLL

binding (HA‐TAK1 (human)): binds
binding (HA‐TAK1‐2A (human)): binds
binding [2]: binds
B2: TAB2 (protein, UniProt Q9NYJ8 1-693)
chain: MAQGSHQIDFQVLHDLRQKFPEVPEVVVSRCMLQNNNNLDACCAVLSQESTRYLYGEGDLNFSDDSGISGLRNHMTSLNLDLQSQNIYHHGREGSRMNGSRTLTHSISDGQLQGGQSNSELFQQEPQTAPAQVPQGFNVFGMSSSSGASNSAPHLGFHLGSKGTSSLSQQTPRFNPIMVTLAPNIQTGRNTPTSLHIHGVPPPVLNSPQGNSIYIRPYITTPGGTTRQTQQHSGWVSQFNPMNPQQVYQPSQPGPWTTCPASNPLSHTSSQQPNQQGHQTSHVYMPISSPTTSQPPTIHSSGSSQSSAHSQYNIQNISTGPRKNQIEIKLEPPQRNNSSKLRSSGPRTSSTSSSVNSQTLNRNQPTVYIAASPPNTDELMSRSQPKVYISANAATGDEQVMRNQPTLFISTNSGASAASRNMSGQVSMGPAFIHHHPPKSRAIGNNSATSPRVVVTQPNTKYTFKITVSPNKPPAVSPGVVSPTFELTNLLNHPDHYVETENIQHLTDPTLAHVDRISETRKLSMGSDDAAYTQALLVHQKARMERLQRELEIQKKKLDKLKSEVNEMENNLTRRRLKRSNSISQIPSLEEMQQLRSCNRQLQIDIDCLTKEIDLFQARGPHFNPSAIHNFYDNIGFVGPVPPKPKDQRSIIKTPKTQDTEDDEGAQWNCTACTFLNHPALIRCEQCEMPRHF

binding (HA‐TAK1 (human), O43318 [3]): binds
binding (HA‐TAK1 (human), O43318 [4]): binds
binding [5]: binds
B3: Flag‐TRAF2, Q12933 1-501 (protein)
chain: MAAASVTPPGSLELLQPGFSKTLLGTKLEAKYLCSACRNVLRRPFQAQCGHRYCSFCLASILSSGPQNCAACVHEGIYEEGISILESSSAFPDNAARREVESLPAVCPSDGCTWKGTLKEYESCHEGRCPLMLTECPACKGLVRLGEKERHLEHECPERSLSCRHCRAPCCGADVKAHHEVCPKFPLTCDGCGKKKIPREKFQDHVKTCGKCRVPCRFHAIGCLETVEGEKQQEHEVQWLREHLAMLLSSVLEAKPLLGDQSHAGSELLQRCESLEKKTATFENIVCVLNREVERVAMTAEACSRQHRLDQDKIEALSSKVQQLERSIGLKDLAMADLEQKVLEMEASTYDGVFIWKISDFARKRQEAVAGRIPAIFSPAFYTSRYGYKMCLRIYLNGDGTGRGTHLSLFFVVMKGPNDALLRWPFNQKVTLMLLDQNNREHVIDAFRPDVTSSSFQRPVNDMNIASGCPLFCPVSKMEAKNSYVRDDAIFIKAIVDLTGL
